PubChem BioAssay AID1224830 – NIAID – 2016

Screen: 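Genes whose knock-down alters the TNF-alpha reporter response to LPS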 (primary screen)
System: human THP-1 monocytic leukaemia cells, TNF dual-luciferase reporter clone, PMA-differentiated to macrophage-like cells
Knock-down reagent: siRNA pool against human genes, 50 nM
Duration: LPS for 4 h, given about 3 days after siRNA transfection
Challenge: bacterial LPS (TLR4 ligand), 10 ng/ml
Measured: 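TNF firefly reporter luminescence divided by renilla, normalised to the plate median, then turned into a robust z-score for each replicate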
Reading the numbers: TNF reporter robust z-score: higher = stronger TNF reporter response to LPS
Active means: 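a well is active when its z-score exceeds 2.8 or falls below -1.5; control wells carry no call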
In all, the deposit lists about 18,000 reagents; shown is an unselected part. About 2,900 of all reagents (16%) were called active. 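Calls are made per well; low scores hint the gene aids the LPS response, high scores that it dampens it.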 Repeated entries: four replicate wells of each siRNA pool. No sequences are given here.

Gene	TNF reporter robust z-score	activity call
AUP1	-0.34	inactive
AUP1	-0.93	inactive
AUP1	-1.1	inactive
AUP1	0.4	inactive
ATP2B3	-1.71	active
ATP2B3	-0.73	inactive
ATP2B3	-1.08	inactive
ATP2B3	-0.55	inactive
P3H2	-0.06	inactive
P3H2	-0.38	inactive
P3H2	0	inactive
P3H2	0.16	inactive
NLRP5	0.15	inactive
NLRP5	-0.53	inactive
NLRP5	-0.39	inactive
NLRP5	-0.68	inactive
PTPN7	0.12	inactive
PTPN7	0.91	inactive
PTPN7	-0.21	inactive
PTPN7	-0.41	inactive
P2RY6	-0.48	inactive
P2RY6	-0.11	inactive
P2RY6	-0.15	inactive
P2RY6	-0.29	inactive

Part of the list above in another layout.
P3H2 | TNF reporter robust z-score: -0.06; activity call: inactive
P3H2 | TNF reporter robust z-score: -0.38; activity call: inactive
P3H2 | TNF reporter robust z-score: 0; activity call: inactive
P3H2 | TNF reporter robust z-score: 0.16; activity call: inactive
NLRP5 | TNF reporter robust z-score: 0.15; activity call: inactive
NLRP5 | TNF reporter robust z-score: -0.53; activity call: inactive
NLRP5 | TNF reporter robust z-score: -0.39; activity call: inactive

The listing continues:
Gene	TNF reporter robust z-score	activity call
FAM8A1	-1.38	inactive
FAM8A1	-0.31	inactive
FAM8A1	-0.85	inactive
FAM8A1	0.02	inactive
ACER3	-0.11	inactive
ACER3	0.78	inactive
ACER3	0.26	inactive
ACER3	0.8	inactive
PDCD6IP	0.58	inactive
PDCD6IP	0.75	inactive
PDCD6IP	0.34	inactive
PDCD6IP	0.14	inactive
SPATA13	-0.78	inactive
SPATA13	-0.76	inactive
SPATA13	-0.42	inactive
SPATA13	-0.43	inactive
PALLD	-0.87	inactive
PALLD	-1.35	inactive
PALLD	-1.08	inactive
PALLD	-1.44	inactive
DES	0.75	inactive
DES	-0.09	inactive
DES	-0.44	inactive
